Reference: US12419871B2, “Biomolecules involved in Alzheimer's disease” (ELECTROPHORETICS LIMITED, priority 2015, dated 2025)

Assay: TMTcalibrator quantification of regulated proteins in AD CSF versus control
Set-up: species or system human
Conditions: CSF of AD patient versus control; non-modified peptides of each protein summed for three control and three AD cases

| Molecule | Log2 AD/Control |
| --- | --- |
| O75326 (protein, UniProt O75326 1-666, looked up, full-length) MTPPPPGRAAPSAPRARVPGPPARLGLPLRLRLLLLLWAAAASAQGHLRSGPRIFAVWKGHVGQDRVDFGQTEPHTVLFHEPGSSSVWVGGRGKVYLFDFPEGKNASVRTVNIGSTKGSCLDKRDCENYITLLERRSEGLLACGTNARHPSCWNLVNGTVVPLGEMRGYAPFSPDENSLVLFEGDEVYSTIRKQEYNGKIPRFRRIRGESELYTSDTVMQNPQFIKATIVHQDQAYDDKIYYFFREDNPDKNPEAPLNVSRVAQLCRGDQGGESSLSVSKWNTFLKAMLVCSDAATNKNFNRLQDVFLLPDPSGQWRDTRVYGVFSNPWNYSAVCVYSLGDIDKVFRTSSLKGYHSSLPNPRPGKCLPDQQPIPTETFQVADRHPEVAQRVEPMGPLKTPLFHSKYHYQKVAVHRMQASHGETFHVLYLTTDRGTIHKVVEPGEQEHSFAFNIMEIQPFRRAAAIQTMSLDAERRKLYVSSQWEVSQVPLDLCEVYGGGCHGCLMSRDPYCGWDQGRCISIYSSERSVLQSINPAEPHKECPNPKPDKAPLQKVSLAPNSRYYLSCPMESRHATYSWRHKENVEQSCEPGHQSPNCILFIENLTAQQYGHYFCEAQEGSYFREAQHWQLLPEDGIMAEHLLGHACALAASLWLGVLPTLTLGLLVH | 0.85 |
| P05060 (protein, UniProt P05060 1-677, looked up, full-length) MQPTLLLSLLGAVGLAAVNSMPVDNRNHNEGMVTRCIIEVLSNALSKSSAPPITPECRQVLKTSRKDVKDKETTENENTKFEVRLLRDPADASEAHESSSRGEAGAPGEEDIQGPTKADTEKWAEGGGHSRERADEPQWSLYPSDSQVSEEVKTRHSEKSQREDEEEEEGENYQKGERGEDSSEEKHLEEPGETQNAFLNERKQASAIKKEELVARSETHAAGHSQEKTHSREKSSQESGEETGSQENHPQESKGQPRSQEESEEGEEDATSEVDKRRTRPRHHHGRSRPDRSSQGGSLPSEEKGHPQEESEESNVSMASLGEKRDHHSTHYRASEEEPEYGEEIKGYPGVQAPEDLEWERYRGRGSEEYRAPRPQSEESWDEEDKRNYPSLELDKMAHGYGEESEEERGLEPGKGRHHRGRGGEPRAYFMSDTREEKRFLGEGHHRVQENQMDKARRHPQGAWKELDRNYLNYGEEGAPGKWQQQGDLQDTKENREEARFQDKQYSSHHTAEKRKRLGELFNPYYDPLQWKSSHFERRDNMNDNFLEGEEENELTLNEKNFFPEYNYDWWEKKPFSEDVNWGYEKRNLARVPKLDLKRQYDRVAQLDQLLHYRKKSAEFPDFYDSEEPVSTHQEAENEKDRADQTVLTEDEKKELENLAAMDLELQKIAEKFSQRG | 0.80 |
| O15034 (protein, UniProt O15034 1-1052, looked up, full-length) MREAAERRQQLQLEHDQALAVLSAKQQEIDLLQKSKVRELEEKCRTQSEQFNLLSRDLEKFRQHAGKIDLLGGSAVAPLDISTAPSKPFPQFMNGLATSLGKGQESAIGGSSAIGEYIRPLPQPGDRPEPLSAKPTFLSRSGSARCRSESDMENERNSNTSKQRYSGKVHLCVARYSYNPFDGPNENPEAELPLTAGKYLYVYGDMDEDGFYEGELLDGQRGLVPSNFVDFVQDNESRLASTLGNEQDQNFINHSGIGLEGEHILDLHSPTHIDAGITDNSAGTLDVNIDDIGEDIVPYPRKITLIKQLAKSVIVGWEPPAVPPGWGTVSSYNVLVDKETRMNLTLGSRTKALIEKLNMAACTYRISVQCVTSRGSSDELQCTLLVGKDVVVAPSHLRVDNITQISAQLSWLPTNSNYSHVIFLNEEEFDIVKAARYKYQFFNLRPNMAYKVKVLAKPHQMPWQLPLEQREKKEAFVEFSTLPAGPPAPPQDVTVQAGVTPATIRVSWRPPVLTPTGLSNGANVTGYGVYAKGQRVAEVIFPTADSTAVELVRLRSLEAKGVTVRTLSAQGESVDSAVAAVPPELLVPPTPHPRPAPQSKPLASSGVPETKDEHLGPHARMDEAWEQSRAPGPVHGHMLEPPVGPGRRSPSPSRILPQPQGTPVSTTVAKAMAREAAQRVAESSRLEKRSVFLERSSAGQYAASDEEDAYDSPDFKRRGASVDDFLKGSELGKQPHCCHGDEYHTESSRGSDLSDIMEEDEEELYSEMQLEDGGRRRPSGTSHNALKILGNPASAGRVDHMGRRFPRGSAGPQRSRPVTVPSIDDYGRDRLSPDFYEESETDPGAEELPARIFVALFDYDPLTMSPNPDAAEEELPFKEGQIIKVYGDKDADGFYRGETCARLGLIPCNMVSEIQADDEEMMDQLLRQGFLPLNTPVEKIERSRRSGRRHSVSTRRMVALYDYDPRESSPNVDVEAELTFCTGDIITVFGEIDEDGFYYGELNGQKGLVPSNFLEEVPDDVEVYLSDAPSHYSQDTPMRSKAKRKKSVHFTP | 2.48 |
| Q9P227 (protein, UniProt Q9P227 1-1491, looked up, full-length) MNGVAFCLVGIPPRPEPRPPQLPLGPRDGCSPRRPFPWQGPRTLLLYKSPQDGFGFTLRHFIVYPPESAVHCSLKEEENGGRGGGPSPRYRLEPMDTIFVKNVKEDGPAHRAGLRTGDRLVKVNGESVIGKTYSQVIALIQNSDDTLELSIMPKDEDILQLAYSQDAYLKGNEPYSGEARSIPEPPPICYPRKTYAPPARASTRATMVPEPTSALPSDPRSPAAWSDPGLRVPPAARAHLDNSSLGMSQPRPSPGAFPHLSSEPRTPRAFPEPGSRVPPSRLECQQALSHWLSNQVPRRAGERRCPAMAPRARSASQDRLEEVAAPRPWPCSTSQDALSQLGQEGWHRARSDDYLSRATRSAEALGPGALVSPRFERCGWASQRSSARTPACPTRDLPGPQAPPPSGLQGLDDLGYIGYRSYSPSFQRRTGLLHALSFRDSPFGGLPTFNLAQSPASFPPEASEPPRVVRPEPSTRALEPPAEDRGDEVVLRQKPPTGRKVQLTPARQMNLGFGDESPEPEASGRGERLGRKVAPLATTEDSLASIPFIDEPTSPSIDLQAKHVPASAVVSSAMNSAPVLGTSPSSPTFTFTLGRHYSQDCSSIKAGRRSSYLLAITTERSKSCDDGLNTFRDEGRVLRRLPNRIPSLRMLRSFFTDGSLDSWGTSEDADAPSKRHSTSDLSDATFSDIRREGWLYYKQILTKKGKKAGSGLRQWKRVYAALRARSLSLSKERREPGPAAAGAAAAGAGEDEAAPVCIGSCLVDISYSETKRRHVFRLTTADFCEYLFQAEDRDDMLGWIRAIRENSRAEGEDPGCANQALISKKLNDYRKVSHSSGPKADSSPKGSRGLGGLKSEFLKQSAARGLRTQDLPAGSKDDSAAAPKTPWGINIIKKNKKAAPRAFGVRLEECQPATENQRVPLIVAACCRIVEARGLESTGIYRVPGNNAVVSSLQEQLNRGPGDINLQDERWQDLNVISSLLKSFFRKLPEPLFTDDKYNDFIEANRIEDARERMRTLRKLIRDLPGHYYETLKFLVGHLKTIADHSEKNKMEPRNLALVFGPTLVRTSEDNMTDMVTHMPDRYKIVETLIQHSDWFFSDEEDKGERTPVGDKEPQAVPNIEYLLPNIGRTVPPGDPGSDSTTCSSAKSKGSWAPKKEPYAREMLAISFISAVNRKRKKRREARGLGSSTDDDSEQEAHKPGAGATAPGTQERPQGPLPGAVAPEAPGRLSPPAAPEERPAADTRSIVSGYSTLSTMDRSVCSGASGRRAGAGDEADDERSELSHVETDTEGAAGAGPGGRLTRRPSFSSHHLMPCDTLARRRLARGRPDGEGAGRGGPRAPEPPGSASSSSQESLRPPAAALASRPSRMEALRLRLRGTADDMLAVRLRRPLSPETRRRRSSWRRHTVVVQSPLTDLNFNEWKELGGGGPPEPAGARAHSDNKDSGLSSLESTKARAPSSAASQPPAPGDTGSLQSQPPRRSAASRLHQCL | 0.88 |
| Q9Y3A5 (protein, UniProt Q9Y3A5 1-250, looked up, full-length) MSIFTPTNQIRLTNVAVVRMKRAGKRFEIACYKNKVVGWRSGVEKDLDEVLQTHSVFVNVSKGQVAKKEDLISAFGTDDQTEICKQILTKGEVQVSDKERHTQLEQMFRDIATIVADKCVNPETKRPYTVILIERAMKDIHYSVKTNKSTKQQALEVIKQLKEKMKIERAHMRLRFILPVNEGKKLKEKLKPLIKVIESEDYGQQLEIVCLIDPGCFREIDELIKKETKGKGSLEVLNLKDVEEGDEKFE | 0.86 |
